# PubChem BioAssay AID1259405 – NCATS – 2018
# Test: 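Knock-downs that lift recombinant protein yield in hamster ovary cells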 (primary screen)
# Cell system: Chinese hamster CHO-K1 ovary cells with stable secreted eGFP expression
# Reagents: single siRNA against mouse genes, 0.8 pmol siRNA per well (2 µl of 400 nM stock)
# Duration: 3 days
# Measurement: 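Per-well intracellular GFP measured by laser scanning cytometry, plus viability from ATP luminescence, each relative to plate median of non-targeting control wells, in %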
# Scale: GFP, % of control: higher = more GFP per well, higher productivity; viability (ATP), % of control: higher = more viable cells (more ATP)
# Hit rule: 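Called active when intracellular GFP, relative to negative control, is at or above 120%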
# The deposit covers about 50,000 reagents; shown is a random part of them. About 4,000 of all reagents (8%) were called active. 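Mouse siRNA library applied to hamster cells; one well for each siRNA.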 Entries without a mark were called inactive. Reagents against one gene are numbered here. Reagent sequences are not shown.
Gene,siRNA no.,"GFP, % of control","viability (ATP), % of control"
Fads6,1,83,86
Fads6,2,93.9,97.5
Prdm4,1,102,112
Prdm4,2,53,78.7
Prdm4,3,98.4,116
Tpi1,1,81.9,73.7
Tpi1,2,58.2,73.6
Tpi1,3,63.4,55.5
Fam177a,1,48.1,60.7
Fam177a,2,91,74.4
Fam177a,3,40.9,54.3
Mettl9,1,118,87.6
Mettl9,2,145 (active),115
Mettl9,3,86.9,62.6
Exoc5,1,56.7,67.6
Exoc5,2,41.9,47.1
Exoc5,3,86.2,81
Tspyl4,1,47.7,46.9
Tspyl4,2,83.3,91.8
Tspyl4,3,93,45.4
Or2v2,1,38.1,48.7
Or2v2,2,83,73.5
Or2v2,3,71.8,101
Slc41a1,1,108,88.5
Slc41a1,2,49.1,43.1
Slc41a1,3,101,73.1
Usp49,1,86.3,87.6
Usp49,2,47.3,46.5
Usp49,3,74.3,79.5
Wipi1,1,80,74.1
Wipi1,2,92.3,59.4
Wipi1,3,95.1,97.2
Slc1a6,1,70,53.2
Slc1a6,2,124 (active),95.6
Slc1a6,3,77.4,67.2

Laid out differently: 4 of the entries above
{"Gene": "Wipi1", "siRNA no.": 2, "GFP, % of control": 92.3, "viability (ATP), % of control": 59.4}
{"Gene": "Wipi1", "siRNA no.": 3, "GFP, % of control": 95.1, "viability (ATP), % of control": 97.2}
{"Gene": "Slc1a6", "siRNA no.": 1, "GFP, % of control": 70, "viability (ATP), % of control": 53.2}
{"Gene": "Slc1a6", "siRNA no.": 2, "GFP, % of control": "124 (active)", "viability (ATP), % of control": 95.6}
